The values that follow are results of earlier work, collected in patent US4812312A, “Liposome-incorporated nystatin” (Board of Regents of the University of Texas System, priority 1987, dated 1989).

The conditions of this data set: cited from earlier work.

Take `C[C@@H]1[C@H](O)[C@@H](C)/C=C/C=C/C=C/C=C/C=C/C=C/C=C/[C@H](O[C@@H]2O[C@H](C)[C@@H](O)[C@H](N)[C@@H]2O)C[C@@H]2O[C@](O)(C[C@@H](O)C[C@@H](O)[C@H](O)CC[C@@H](O)C[C@@H](O)CC(=O)O[C@H]1C)C[C@H](O)[C@H]2C(=O)O` [amphotericin B]: the solubility in water result was “insoluble in water”.
